Among the data in PubChem BioAssay AID2685 (National Center for Advancing Translational Sciences (NCATS), 2010) are cell number change and AC50 values, retold here.

A short description of the test: qHTS Assay for Lipid Storage Modulators in Drosophila S3 Cells.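 As to cell number change: cells counted by Cell Tracker Red CMTPX staining in the red channel.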 Conditions: BODIPY lipid droplet fluorescence, 18-24 h; for cell number change: measured here: cell count max response, cells fed with added oleic acid. The procedure, abridged: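 Laser-scanning cytometry quantifies lipid droplet accumulation (500–530 nm total intensity; droplet/cell object ratio) in oleic acid-fed (400 uM added) Drosophila S3 cells treated with a concentration series. 20 uM Triacsin C defined 100% inhibition.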
For orientation: Quantitative high-throughput screening tests each substance at several concentrations.

Setting [1] is: measured here: cell number channel AC50, cells fed with added oleic acid.
[2] abbreviates: measured here: lipid fluorescence (Fed channel) AC50, cells fed with added oleic acid.

SMILES strings stand for the structures. This is one part of the list. These are further read-outs of the screen, such as a control signal, another cell line or another target. No call is given for them. The list favours compounds with an active or inconclusive main result. Potencies come from curve fits of mixed quality, noted in brackets.

Turning to `CCCC(=O)NCc1ccccc1Cl`, the cell number change is -3.82%. Also, the AC50 – broadly, the midpoint of the concentration-response curve, whichever way the signal moves – under setting [1] was 0.00461 µM [falling, full curve, poor fit].
As to `COc1cccc(-n2nnc3c(=O)n(CC(=O)N4CCC(Cc5ccccc5)CC4)cnc32)c1`, the cell number change was -19.7%.
Regarding `N#Cc1ccc(C(=O)Nc2nnc(-c3cccs3)o2)cc1`, the cell number change was -24.2%. Further, under setting [2], the AC50 is 20.6 µM [falling, single point].
As for `CN(C)CCNc1oc(-c2ccccc2Cl)nc1S(=O)(=O)c1ccccc1`, the cell number change is 14.9%. The AC50 under setting [2] was 3.26 µM [rising, full curve].
For `CCCCn1c(C(C)NC(=O)c2cccs2)nc2ccccc21` (stereo not given), the cell number change was 89.6%. Under setting [1], the AC50 was 9.2 µM [rising, partial curve]. The AC50 under setting [2] was 2.06 µM [rising, partial curve].
Regarding `O=C(CN1c2ccccc2Sc2ccccc21)NNC(=O)Nc1ccc(Cl)c(Cl)c1`, the cell number change is -39.7%. For the same compound, the AC50 under setting [1] is 32.6 µM [falling, single point].
On to `Cn1c(=O)c2c(nc(Br)n2C)n(C)c1=O`, for which the cell number change is 24%. In addition, the AC50 under setting [2] was 11.6 µM [rising, partial curve].
As for `COc1ccc(/C=C(\NC(=O)c2ccccc2)C(=O)N2CCC(C)CC2)cc1`, the cell number change was -2.66%. In addition, the concentration at half-maximal activity (AC50) under setting [2] was 10.3 µM [falling, single point].
Regarding `CCn1c(=O)cc(O)c2c(=O)n(C)c(=O)n(C)c21`, the cell number change was determined as 26.4%. Further, the AC50 under setting [2] was 29.1 µM [rising, single point].
With `Nc1nc(SCC(=O)Nc2ccc3c(c2)CCC3)n[nH]1`, the cell number change was determined as 16%. Under setting [2], the AC50 was 1.03 µM [rising, full curve, poor fit].
In the case of `O=C(CCNC(=O)c1ccco1)Nc1ccc(F)c(Cl)c1`, the cell number change was 2.82%.
As to `Cc1ccc(NC(=O)C(OC(=O)c2ccccc2Cl)c2ccccc2)cc1Cl` (stereo not given), the cell number change came out at 19.1%. Moreover, the AC50 under setting [2] is 3.26 µM [rising, partial curve].
Consider `COc1cc2c(cc1OC)C(c1ccccc1Cl)N(C)CC2` (stereo not given), for which the cell number change came out at 14.6%. Moreover, the concentration at half-maximal activity (AC50) under setting [2] is 29.1 µM [rising, single point].
As for `CCN(CC)CCOC(=O)c1ccc(N/C=C(/C#N)c2nc(-c3ccc4c(c3)OCO4)cs2)cc1`, the cell number change was -12.9%.
Regarding `CCc1ccc(NC(=O)C(=O)NCC2CCCN2S(=O)(=O)c2ccccc2)cc1` (stereo not given), the cell number change was 25%. In addition, the AC50 under setting [2] is 25.9 µM [falling, partial curve, poor fit].
Regarding `COc1cc(/C=N/n2cnnc2)ccc1OCCSc1ccc(C)cc1`, the cell number change is -27.6%. The AC50 under setting [2] is 16.4 µM [falling, single point].
As for `S=c1[nH]cnc2scc(-c3ccc(Br)cc3)c12`, the cell number change was -13.9%. In addition, the concentration at half-maximal activity (AC50) under setting [2] was 0.116 µM [falling, full curve, poor fit].
With `Cc1ccc2nc(N3C(=O)C(O)=C(C(=O)c4ccc(C)o4)C3c3ccco3)sc2c1` (stereo not given), the cell number change was -30.2%. In addition, the AC50 under setting [1] was 1.46 µM [falling, full curve, poor fit]. Besides, the AC50 under setting [2] is 3.26 µM [falling, partial curve].
